# Laboratory results reported in PubChem BioAssay (EPA / NIEHS).
# Protein sequences, listed by entry. Tags and fused reporters are not part of them. Lines headed by an entry give the natural chain unless they say otherwise; changes in a name come on top.
# UniProt P04629: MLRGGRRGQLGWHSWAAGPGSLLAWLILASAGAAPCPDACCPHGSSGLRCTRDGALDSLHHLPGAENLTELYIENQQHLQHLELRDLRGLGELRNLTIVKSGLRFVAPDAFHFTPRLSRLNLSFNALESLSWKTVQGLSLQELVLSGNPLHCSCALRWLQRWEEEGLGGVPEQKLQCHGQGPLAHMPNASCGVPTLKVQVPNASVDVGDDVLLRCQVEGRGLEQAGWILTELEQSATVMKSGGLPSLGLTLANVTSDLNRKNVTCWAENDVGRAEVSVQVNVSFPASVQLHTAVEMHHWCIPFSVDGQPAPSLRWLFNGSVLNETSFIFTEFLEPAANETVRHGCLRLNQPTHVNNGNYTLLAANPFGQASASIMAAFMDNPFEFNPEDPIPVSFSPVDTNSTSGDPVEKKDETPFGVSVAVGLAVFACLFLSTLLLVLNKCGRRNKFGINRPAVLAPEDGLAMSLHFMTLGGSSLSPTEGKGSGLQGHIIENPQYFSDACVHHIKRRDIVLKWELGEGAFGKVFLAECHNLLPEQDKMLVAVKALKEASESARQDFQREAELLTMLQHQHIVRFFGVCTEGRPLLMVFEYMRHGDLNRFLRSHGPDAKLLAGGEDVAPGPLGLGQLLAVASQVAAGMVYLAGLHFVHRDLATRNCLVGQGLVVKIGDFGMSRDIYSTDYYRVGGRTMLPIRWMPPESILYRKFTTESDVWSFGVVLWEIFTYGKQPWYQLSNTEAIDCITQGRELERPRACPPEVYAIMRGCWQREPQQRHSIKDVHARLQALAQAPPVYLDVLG
# UniProt P17948, whole entry, looked up: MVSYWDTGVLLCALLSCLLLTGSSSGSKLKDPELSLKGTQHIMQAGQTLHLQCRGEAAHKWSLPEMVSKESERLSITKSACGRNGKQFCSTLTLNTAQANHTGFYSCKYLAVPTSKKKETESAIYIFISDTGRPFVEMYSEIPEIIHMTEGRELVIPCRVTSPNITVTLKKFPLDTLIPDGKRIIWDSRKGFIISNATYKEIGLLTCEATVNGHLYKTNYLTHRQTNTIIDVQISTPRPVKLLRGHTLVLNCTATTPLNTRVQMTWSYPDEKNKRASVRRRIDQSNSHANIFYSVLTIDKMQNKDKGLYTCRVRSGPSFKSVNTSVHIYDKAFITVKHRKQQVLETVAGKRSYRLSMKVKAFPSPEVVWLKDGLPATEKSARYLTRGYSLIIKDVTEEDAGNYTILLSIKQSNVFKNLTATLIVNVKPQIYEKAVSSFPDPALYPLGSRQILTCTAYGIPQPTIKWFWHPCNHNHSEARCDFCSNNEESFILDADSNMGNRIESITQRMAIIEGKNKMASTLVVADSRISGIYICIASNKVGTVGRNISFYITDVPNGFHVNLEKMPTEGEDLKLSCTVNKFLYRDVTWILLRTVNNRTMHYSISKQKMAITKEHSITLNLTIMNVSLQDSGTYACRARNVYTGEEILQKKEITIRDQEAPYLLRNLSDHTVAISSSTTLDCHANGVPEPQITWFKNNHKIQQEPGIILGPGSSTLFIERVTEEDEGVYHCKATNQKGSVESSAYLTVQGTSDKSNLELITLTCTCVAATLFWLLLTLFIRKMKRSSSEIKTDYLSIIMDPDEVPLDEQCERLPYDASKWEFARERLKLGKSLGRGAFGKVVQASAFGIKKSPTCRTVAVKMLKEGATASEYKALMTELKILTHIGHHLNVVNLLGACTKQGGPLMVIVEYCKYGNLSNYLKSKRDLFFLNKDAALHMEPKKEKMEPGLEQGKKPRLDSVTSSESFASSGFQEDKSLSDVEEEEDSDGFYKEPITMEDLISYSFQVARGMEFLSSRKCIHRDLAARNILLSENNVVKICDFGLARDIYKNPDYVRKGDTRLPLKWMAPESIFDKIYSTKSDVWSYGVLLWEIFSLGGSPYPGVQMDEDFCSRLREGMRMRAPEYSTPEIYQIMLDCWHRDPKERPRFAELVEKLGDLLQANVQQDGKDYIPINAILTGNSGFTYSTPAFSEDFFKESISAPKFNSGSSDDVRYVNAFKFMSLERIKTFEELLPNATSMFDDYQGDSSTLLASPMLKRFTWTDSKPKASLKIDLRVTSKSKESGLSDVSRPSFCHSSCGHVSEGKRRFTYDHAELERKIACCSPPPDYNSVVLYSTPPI
# UniProt P35916, whole entry, looked up: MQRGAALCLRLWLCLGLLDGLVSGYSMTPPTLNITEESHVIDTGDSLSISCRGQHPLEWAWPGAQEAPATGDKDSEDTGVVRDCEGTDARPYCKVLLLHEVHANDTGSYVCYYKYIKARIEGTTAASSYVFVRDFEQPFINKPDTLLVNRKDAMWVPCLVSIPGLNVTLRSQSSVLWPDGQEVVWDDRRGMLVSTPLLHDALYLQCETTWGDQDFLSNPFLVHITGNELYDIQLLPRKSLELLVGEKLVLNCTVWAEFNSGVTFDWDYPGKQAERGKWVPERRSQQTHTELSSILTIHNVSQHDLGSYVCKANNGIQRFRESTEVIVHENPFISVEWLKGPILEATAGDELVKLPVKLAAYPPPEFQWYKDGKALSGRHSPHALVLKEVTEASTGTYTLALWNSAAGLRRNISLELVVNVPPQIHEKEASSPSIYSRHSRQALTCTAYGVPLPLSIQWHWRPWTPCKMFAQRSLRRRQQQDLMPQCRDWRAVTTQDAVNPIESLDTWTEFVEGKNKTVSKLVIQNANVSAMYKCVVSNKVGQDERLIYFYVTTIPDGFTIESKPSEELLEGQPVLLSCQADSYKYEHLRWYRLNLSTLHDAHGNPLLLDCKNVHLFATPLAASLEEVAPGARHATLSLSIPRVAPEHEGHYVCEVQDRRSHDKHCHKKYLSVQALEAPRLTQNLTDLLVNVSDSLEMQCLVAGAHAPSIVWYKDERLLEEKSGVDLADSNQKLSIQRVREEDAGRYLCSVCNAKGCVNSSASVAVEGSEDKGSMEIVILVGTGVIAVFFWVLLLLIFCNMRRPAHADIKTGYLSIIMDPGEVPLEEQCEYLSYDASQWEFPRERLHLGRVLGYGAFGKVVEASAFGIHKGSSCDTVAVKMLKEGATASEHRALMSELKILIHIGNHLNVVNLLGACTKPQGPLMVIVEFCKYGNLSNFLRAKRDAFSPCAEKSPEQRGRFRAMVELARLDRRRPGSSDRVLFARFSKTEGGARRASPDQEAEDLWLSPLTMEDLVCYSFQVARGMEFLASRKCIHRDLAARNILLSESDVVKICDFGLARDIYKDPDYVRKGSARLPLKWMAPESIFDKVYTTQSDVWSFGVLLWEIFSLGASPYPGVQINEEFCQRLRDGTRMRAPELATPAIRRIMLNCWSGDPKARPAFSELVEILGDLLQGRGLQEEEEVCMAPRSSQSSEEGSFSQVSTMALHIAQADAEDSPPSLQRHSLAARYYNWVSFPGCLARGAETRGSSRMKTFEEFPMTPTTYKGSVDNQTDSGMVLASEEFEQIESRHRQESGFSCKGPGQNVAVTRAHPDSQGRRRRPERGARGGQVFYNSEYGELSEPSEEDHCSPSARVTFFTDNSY
# UniProt P35968, whole entry, looked up: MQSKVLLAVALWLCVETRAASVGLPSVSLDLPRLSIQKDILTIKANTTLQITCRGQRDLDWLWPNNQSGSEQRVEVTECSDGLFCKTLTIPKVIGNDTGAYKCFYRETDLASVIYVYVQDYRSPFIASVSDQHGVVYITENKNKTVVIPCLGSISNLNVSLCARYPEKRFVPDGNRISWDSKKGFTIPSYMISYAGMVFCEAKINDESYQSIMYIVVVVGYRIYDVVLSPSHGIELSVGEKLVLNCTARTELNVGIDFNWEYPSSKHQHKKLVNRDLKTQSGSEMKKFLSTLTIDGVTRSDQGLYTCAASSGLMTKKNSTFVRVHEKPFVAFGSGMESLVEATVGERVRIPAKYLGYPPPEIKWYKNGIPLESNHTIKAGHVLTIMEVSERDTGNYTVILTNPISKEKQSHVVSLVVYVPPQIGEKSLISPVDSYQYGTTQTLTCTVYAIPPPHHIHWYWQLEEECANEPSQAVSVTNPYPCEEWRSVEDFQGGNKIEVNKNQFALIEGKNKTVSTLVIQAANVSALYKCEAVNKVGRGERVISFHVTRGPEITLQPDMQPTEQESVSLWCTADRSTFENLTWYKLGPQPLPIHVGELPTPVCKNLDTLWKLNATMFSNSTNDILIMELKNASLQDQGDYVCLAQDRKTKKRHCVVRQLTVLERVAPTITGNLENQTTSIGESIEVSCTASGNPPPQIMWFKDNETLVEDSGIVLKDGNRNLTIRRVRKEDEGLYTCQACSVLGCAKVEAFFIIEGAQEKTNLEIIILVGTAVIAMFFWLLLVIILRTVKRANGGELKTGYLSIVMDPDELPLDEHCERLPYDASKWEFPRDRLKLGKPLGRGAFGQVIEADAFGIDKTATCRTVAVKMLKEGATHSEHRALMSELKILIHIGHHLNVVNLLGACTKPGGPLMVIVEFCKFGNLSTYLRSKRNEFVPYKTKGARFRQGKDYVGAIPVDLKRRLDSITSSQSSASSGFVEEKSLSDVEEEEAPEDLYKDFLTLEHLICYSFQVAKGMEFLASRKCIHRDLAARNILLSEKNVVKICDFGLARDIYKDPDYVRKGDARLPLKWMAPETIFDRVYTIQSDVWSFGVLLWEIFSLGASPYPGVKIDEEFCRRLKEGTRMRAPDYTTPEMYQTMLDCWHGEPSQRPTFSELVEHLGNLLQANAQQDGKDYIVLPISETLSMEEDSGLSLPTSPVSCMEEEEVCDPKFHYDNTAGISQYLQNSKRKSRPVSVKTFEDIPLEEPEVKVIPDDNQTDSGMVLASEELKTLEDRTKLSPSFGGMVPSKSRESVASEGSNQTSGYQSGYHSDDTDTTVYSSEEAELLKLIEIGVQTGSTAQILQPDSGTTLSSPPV
# The inconclusive results got no clear call from the source; some entries with a clear call stand among them for comparison. Where the call is inconclusive, the potency comes from a doubtful curve fit. The source made the active and inactive calls. Rule for the calls: active = hit-call score of the fitted dose curve at least 0.9, where 1 is the maximum; inconclusive = response in the unintended direction; inactive = score below 0.9.
# Target: human SRC Proto-Oncogene, Non-receptor Tyrosine Kinase (SRC), SRC (gene 6714) (UniProt P12931)
# Assay: NVS_ENZ_hSRC: NovaScreen (NVS) Enzymatic Assay for human SRC Proto-Oncogene, Non-receptor Tyrosine Kinase (SRC) (AID 2283223)
# How it was run: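 Cell-free kinase activity assay with fluorescent substrate, product separated by electrophoretic mobility shift, read 1 h after dosing. Duplicate single point at 25 uM, then concentration-response up to 50 uM; loss of signal versus DMSO.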
Compound,outcome,AC50
CC1(C)NC(=O)NC1=O,inactive,–
CCCCCCCCCCCCc1ccccc1,–,inconclusive: 25 µM
Cc1[nH]nc2c1N=C(c1ccccc1Cl)c1cc([N+](=O)[O-])ccc1N2,–,active: 23.1 µM
CC(C)(C)c1csc(-c2cc3cc(OCc4ccccc4CC(=O)O)ccc3o2)n1,–,inconclusive: 25 µM
Cc1oc2c(NC(=O)c3c(Cl)cccc3Cl)cccc2c1C(C)(C)O,–,inconclusive: 0.234 µM
Cc1oc(-c2ccccc2)nc1CCOc1cccc2c1ccn2CCC(=O)O,inactive,–
CCCCCCCCCCCCc1ccccc1S(=O)(=O)O,inactive,–
CC1=C(/C=C/C(C)=C/C=C/C(C)=C/CO)C(C)(C)CCC1,–,inconclusive: 26.1 µM

# Target: human Tropomyosin Receptor Kinase A (TRKA), NTRK1 (gene 4914) (UniProt P04629)
# Assay: NVS_ENZ_hTrkA: NovaScreen (NVS) Enzymatic Assay for human Tropomyosin Receptor Kinase A (TRKA) (AID 2283224)
# How it was run: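 Recombinant human TrkA activity read after 1 h by fluorescence with electrophoretic mobility shift separating substrate and product. Primary screen in duplicate at 25 uM; actives were rerun in concentration-response up to 50 uM. Loss of signal versus DMSO.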
Compound,AC50,outcome
CC1(C)NC(=O)NC1=O,inconclusive: 10.3 µM,–
Cc1[nH]nc2c1N=C(c1ccccc1Cl)c1cc([N+](=O)[O-])ccc1N2,active: 17.9 µM,–
Cc1nc(-c2ccccn2)ncc1C(=O)Nn1cc(C)c2cc(F)ccc21,–,inactive
CC(C)(C)c1csc(-c2cc3cc(OCc4ccccc4CC(=O)O)ccc3o2)n1,inconclusive: 25 µM,–
COCC(C)OCC(C)O (stereo not given),inconclusive: 11.6 µM,–
O=C(O)Cc1cc(I)c(Oc2ccc(O)c(I)c2)c(I)c1,active: 2.58 µM,–
CC(=O)OCCC(C)C,–,inactive
CC1=C(/C=C/C(C)=C/C=C/C(C)=C/CO)C(C)(C)CCC1,–,inactive
CN(C)c1ccc(N=NS(=O)(=O)O)cc1,inconclusive: 23.8 µM,–
O=C(Nc1ccc([N+](=O)[O-])cc1Cl)c1cc(Cl)ccc1O,inconclusive: 25 µM,–

# Target: human Vascular Endothelial Growth Factor Receptor 1 (VEGFR1), FLT1 (gene 2321) (UniProt P17948)
# Assay: NVS_ENZ_hVEGFR1: NovaScreen (NVS) Enzymatic Assay for human Vascular Endothelial Growth Factor Receptor 1 (VEGFR1) (AID 2283226)
# How it was run: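 Cell-free assay of recombinant human VEGFR1 kinase with substrate, measured 1 h after dosing; fluorescence with electrophoretic mobility-shift separation of substrate and product, referenced to DMSO; primary screen at 25 uM in duplicate, actives then run in concentration series.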
Compound,AC50,outcome
CC(C)(c1cc(Br)c(OCCO)c(Br)c1)c1cc(Br)c(OCCO)c(Br)c1,inconclusive: 0.935 µM,–
COC(=O)c1cccnc1,inconclusive: 6.37 µM,–
COCCOC(=O)c1ccccc1C(=O)OCCOC,–,inactive
COC(C)(C)CCO,inconclusive: 25 µM,–
Cc1[nH]nc2c1N=C(c1ccccc1Cl)c1cc([N+](=O)[O-])ccc1N2,active: 0.0098 µM,–
Oc1c(Cl)cc(Cl)c(Cl)c1Cc1c(O)c(Cl)cc(Cl)c1Cl,active: 2.93 µM,–
Cc1nc(-c2ccccn2)ncc1C(=O)Nn1cc(C)c2cc(F)ccc21,–,inactive
Cc1ccccc1S(N)(=O)=O,inconclusive: 25 µM,–
Cc1cc(=O)[nH]c(C(C)C)n1,inconclusive: 0.438 µM,–
CN(C)C(=O)Nc1ccc(Oc2ccc(Cl)cc2)cc1,inconclusive: 0.904 µM,–
CC(=O)Nc1ccc(O)cc1,–,inactive
CC(=O)CC(=O)Nc1ccccc1C,inconclusive: 25 µM,–
Cc1cccc(C)c1O,inconclusive: 11.8 µM,–
C1CCOC1,inconclusive: 0.99 µM,–
NC(=O)NC(N)=O,inconclusive: 0.62 µM,–
CC(C)(C)c1cccc(C(C)(C)C)c1O,–,inactive
CC(=O)CCc1ccccc1,–,inactive
Cc1oc(-c2ccccc2)nc1CCOc1cccc2c1ccn2CCC(=O)O,–,inactive
O=C(O)CN(CCN(CC(=O)O)CC(=O)O)CCN(CC(=O)O)CC(=O)O,inconclusive: 12.5 µM,–
O=C1OC2(c3cc(Br)c(O)c(Br)c3Oc3c2cc(Br)c(O)c3Br)c2c(Cl)c(Cl)c(Cl)c(Cl)c21,inconclusive: 4.08 µM,–
C=CCOC(=O)CC(C)C,–,inactive
CCCCCCCCCCC,–,inactive
Cn1c(=O)cc(Oc2ccc(F)cc2F)c2cnc(NCC(C)(C)O)nc21,active: 29.9 µM,–
CC1=C(/C=C/C(C)=C/C=C/C(C)=C/CO)C(C)(C)CCC1,–,inactive
CN(C)c1ccc(N=NS(=O)(=O)O)cc1,–,inactive
CC(=O)CC(C)C,inconclusive: 7.37 µM,–
C#C[C@]1(O)CC[C@H]2[C@@H]3CCC4=Cc5oncc5C[C@]4(C)[C@H]3CC[C@@]21C,inconclusive: 6.57 µM,–
OCc1c[nH]c2ccccc12,inconclusive: 2.69 µM,–
CC(=O)C1C(=O)C=C(C)OC1=O (stereo not given),inconclusive: 0.421 µM,–

# Target: human Vascular Endothelial Growth Factor Receptor 3 (VEGFR3), FLT4 (gene 2324) (UniProt P35916)
# Assay: NVS_ENZ_hVEGFR3: NovaScreen (NVS) Enzymatic Assay for human Vascular Endothelial Growth Factor Receptor 3 (VEGFR3) (AID 2283229)
# How it was run: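 Cell-free recombinant VEGFR3 kinase reaction with fluorescent substrate, read 1 h after dosing by electrophoretic mobility shift separation of substrate and product. Single-concentration duplicate screen at 25 uM, then concentration-response up to 50 uM; loss of activity versus DMSO.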
Compound,AC50,outcome
Cc1nc(-c2ccccn2)ncc1C(=O)Nn1cc(C)c2cc(F)ccc21,inconclusive: 0.493 µM,–
COCC(C)OCC(C)O (stereo not given),inconclusive: 0.142 µM,–
CC1=C(/C=C/C(C)=C/C=C/C(C)=C/CO)C(C)(C)CCC1,–,inactive
CN(C)c1ccc(N=NS(=O)(=O)O)cc1,–,inactive

# Target: human Vascular Endothelial Growth Factor Receptor 2 (VEGFR2), KDR (gene 3791) (UniProt P35968)
# Assay: NVS_ENZ_hVEGFR2: NovaScreen (NVS) Enzymatic Assay for human Vascular Endothelial Growth Factor Receptor 2 (VEGFR2) (AID 2283230)
# How it was run: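 Cell-free recombinant VEGFR2 kinase, fluorescent substrate with electrophoretic mobility-shift separation; read 1 h after dosing. Screened at 25 uM in duplicate, hits to concentration-response up to 50 uM; loss-of-signal versus DMSO.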
Compound,outcome,AC50
Cc1nc(-c2ccccn2)ncc1C(=O)Nn1cc(C)c2cc(F)ccc21,inactive,–
CC1=C(/C=C/C(C)=C/C=C/C(C)=C/CO)C(C)(C)CCC1,inactive,–
CN(C)c1ccc(N=NS(=O)(=O)O)cc1,inactive,–
O=C(Nc1ccc([N+](=O)[O-])cc1Cl)c1cc(Cl)ccc1O,–,inconclusive: 25 µM
